Data set [1] concerns the target T1, F-CphI H102T (cyanophage S-PM2) (UniProt Q7Y4H4).
T1 sequence (looked up, limits assumed): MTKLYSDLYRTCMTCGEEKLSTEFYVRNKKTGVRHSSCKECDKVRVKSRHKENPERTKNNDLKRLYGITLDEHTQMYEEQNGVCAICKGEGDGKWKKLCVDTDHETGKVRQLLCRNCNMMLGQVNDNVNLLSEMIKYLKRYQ
In words: competition with a labelled probe. The following applies: 200 nM protein, 2 nM labeled N1, competitor 0-20 nM; EMSA: 10 mM Tris-HCl pH 8.0, 2% glycerol, 2 ug/ml poly-dIdC, 2 ug/ml BSA, 0.2 mM DTT, on ice 15 min, 2 nM labeled DNA; 8% native PAGE in 1X TBE; recombinant protein; protein details: C-terminal Myc-His; label: unlabeled. A general note: A gel shift assay detects complexes by their altered migration in electrophoresis.

Data set [2] deals with T2, F-CphI D101N (cyanophage S-PM2) (UniProt Q7Y4H4).
T2 sequence (looked up, limits assumed): T1 sequence (looked up, limits assumed) with D101N, T102H
In words: competition with a labelled probe. The following applies: 200 nM protein, 2 nM labeled N1, competitor 0-20 nM; EMSA: 10 mM Tris-HCl pH 8.0, 2% glycerol, 2 ug/ml poly-dIdC, 2 ug/ml BSA, 0.2 mM DTT, on ice 15 min, 2 nM labeled DNA; 8% native PAGE in 1X TBE; recombinant protein; protein details: C-terminal Myc-His; label: unlabeled.

The target of data set [3] is T3, F-CphI R110T (cyanophage S-PM2) (UniProt Q7Y4H4).
T3 sequence (looked up, limits assumed): T1 sequence (looked up, limits assumed) with T102H, R110T
In words: EMSA. The following applies: no Mg2+ added; EMSA: 10 mM Tris-HCl pH 8.0, 2% glycerol, 2 ug/ml poly-dIdC, 2 ug/ml BSA, 0.2 mM DTT, on ice 15 min, 2 nM labeled DNA; 8% native PAGE in 1X TBE; recombinant protein; protein details: C-terminal Myc-His; label: 5'-32P on top strand.

The target in data set [4] is T1, F-CphI H102T (cyanophage S-PM2). Nature of the data set: EMSA. As to conditions: no Mg2+ added, Kd higher than wild type, value only in figure; EMSA: 10 mM Tris-HCl pH 8.0, 2% glycerol, 2 ug/ml poly-dIdC, 2 ug/ml BSA, 0.2 mM DTT, on ice 15 min, 2 nM labeled DNA; 8% native PAGE in 1X TBE; recombinant protein; protein details: C-terminal Myc-His; label: 5'-32P on top strand.

Data set [5] concerns the target T2, F-CphI D101N (cyanophage S-PM2). Nature of the data set: EMSA. As to conditions: no Mg2+ added, Kd higher than wild type, value only in figure; EMSA: 10 mM Tris-HCl pH 8.0, 2% glycerol, 2 ug/ml poly-dIdC, 2 ug/ml BSA, 0.2 mM DTT, on ice 15 min, 2 nM labeled DNA; 8% native PAGE in 1X TBE; recombinant protein; protein details: C-terminal Myc-His; label: 5'-32P on top strand.

For data set [6], the target named is T4, F-CphI N118A (cyanophage S-PM2) (UniProt Q7Y4H4).
T4 sequence (looked up, limits assumed): T1 sequence (looked up, limits assumed) with T102H, N118A
In words: EMSA. As to conditions: no Mg2+ added; EMSA: 10 mM Tris-HCl pH 8.0, 2% glycerol, 2 ug/ml poly-dIdC, 2 ug/ml BSA, 0.2 mM DTT, on ice 15 min, 2 nM labeled DNA; 8% native PAGE in 1X TBE; recombinant protein; protein details: C-terminal Myc-His; label: 5'-32P on top strand.

Data set [7] deals with T5, F-CphI R110A (cyanophage S-PM2) (UniProt Q7Y4H4).
T5 sequence (looked up, limits assumed): T1 sequence (looked up, limits assumed) with T102H, R110A
In words: EMSA. As to conditions: no Mg2+ added; EMSA: 10 mM Tris-HCl pH 8.0, 2% glycerol, 2 ug/ml poly-dIdC, 2 ug/ml BSA, 0.2 mM DTT, on ice 15 min, 2 nM labeled DNA; 8% native PAGE in 1X TBE; recombinant protein; protein details: C-terminal Myc-His; label: 5'-32P on top strand.

Changes are numbered by the printed parent chain. For at least one entry, the source does not settle the construct or the ends of the probe. For some of these results: Negatives hold for the conditions tested. For some of these results: At least one verdict was read from the data and is not stated in words by the source. Where a protein sequence is shown, tags need not be part of it. For some of these results: A weaker result is weaker than the reference pair of the same experiment.

As for “TAGACGGATGAATATTGAGGACAGAAGTTGGATTTGGTAGT (double strand) [endoV41A duplex]”, the binding result in data set [1] and in data set [2] was “no binding” throughout.
Consider “TGGTCTGGGTATGGAAGTGATGCACGAGCGCAACGCTCACAACTTCCCTCTCGACCTTGC (double strand) [SBM4-60Top duplex]”, for which the binding result in data set [3] is given as “no binding”; in data set [4] it was “binds more weakly”; in data set [5], “binds more weakly”; in data set [6] it was “no binding”; in data set [7] it was “no binding”.

The values are drawn from publication PMC6083498, “F-CphI represents a new homing endonuclease family using the Endo VII catalytic motif”.
